Results on two molecules are retold here after publication doi:10.1101/717769.

The chains behind the UniProt entries cited, without tags or fusion partners.
UniProt P26038: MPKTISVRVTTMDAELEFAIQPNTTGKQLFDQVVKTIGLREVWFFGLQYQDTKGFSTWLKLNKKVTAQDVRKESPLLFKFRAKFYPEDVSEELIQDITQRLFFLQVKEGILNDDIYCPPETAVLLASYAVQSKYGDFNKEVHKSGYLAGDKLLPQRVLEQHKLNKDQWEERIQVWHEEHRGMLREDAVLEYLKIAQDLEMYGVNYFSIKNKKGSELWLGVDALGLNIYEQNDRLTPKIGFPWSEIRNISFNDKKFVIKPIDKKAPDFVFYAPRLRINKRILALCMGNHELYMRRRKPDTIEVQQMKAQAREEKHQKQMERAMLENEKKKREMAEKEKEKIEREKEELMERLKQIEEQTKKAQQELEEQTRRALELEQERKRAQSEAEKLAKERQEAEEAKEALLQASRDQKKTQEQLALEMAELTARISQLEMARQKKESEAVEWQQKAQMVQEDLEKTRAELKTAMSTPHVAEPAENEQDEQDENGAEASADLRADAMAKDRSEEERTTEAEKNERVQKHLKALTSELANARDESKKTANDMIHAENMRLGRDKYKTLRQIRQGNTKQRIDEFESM
UniProt P35241: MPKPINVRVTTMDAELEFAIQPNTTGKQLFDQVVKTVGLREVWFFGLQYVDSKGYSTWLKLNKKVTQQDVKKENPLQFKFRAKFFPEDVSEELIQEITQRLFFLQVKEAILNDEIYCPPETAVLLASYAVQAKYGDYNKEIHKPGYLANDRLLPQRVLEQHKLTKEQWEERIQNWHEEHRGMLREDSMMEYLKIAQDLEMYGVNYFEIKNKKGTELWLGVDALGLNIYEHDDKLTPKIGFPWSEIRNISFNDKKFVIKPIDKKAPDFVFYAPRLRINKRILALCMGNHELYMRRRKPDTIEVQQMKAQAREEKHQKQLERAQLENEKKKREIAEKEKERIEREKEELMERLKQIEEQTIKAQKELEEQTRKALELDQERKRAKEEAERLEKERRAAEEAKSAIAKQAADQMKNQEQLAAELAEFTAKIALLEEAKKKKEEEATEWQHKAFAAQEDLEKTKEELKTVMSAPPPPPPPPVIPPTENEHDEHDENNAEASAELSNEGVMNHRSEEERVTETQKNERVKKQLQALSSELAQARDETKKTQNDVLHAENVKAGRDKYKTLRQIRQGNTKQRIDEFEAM
UniProt P15311: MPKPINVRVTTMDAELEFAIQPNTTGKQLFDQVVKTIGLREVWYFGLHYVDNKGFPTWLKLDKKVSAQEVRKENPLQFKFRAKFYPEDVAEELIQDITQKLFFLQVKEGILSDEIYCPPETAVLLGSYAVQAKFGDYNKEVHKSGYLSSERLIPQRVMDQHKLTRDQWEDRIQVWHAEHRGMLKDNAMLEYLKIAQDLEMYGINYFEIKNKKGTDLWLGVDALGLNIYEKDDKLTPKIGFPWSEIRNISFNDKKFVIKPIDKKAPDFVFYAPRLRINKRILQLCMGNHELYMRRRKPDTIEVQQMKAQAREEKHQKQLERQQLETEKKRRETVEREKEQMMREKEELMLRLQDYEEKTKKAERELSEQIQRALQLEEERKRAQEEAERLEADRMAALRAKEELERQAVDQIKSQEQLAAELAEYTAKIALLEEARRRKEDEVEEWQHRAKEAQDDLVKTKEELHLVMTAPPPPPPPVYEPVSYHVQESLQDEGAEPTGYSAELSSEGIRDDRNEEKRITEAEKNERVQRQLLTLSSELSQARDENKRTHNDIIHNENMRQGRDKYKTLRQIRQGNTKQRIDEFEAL
UniProt P11171: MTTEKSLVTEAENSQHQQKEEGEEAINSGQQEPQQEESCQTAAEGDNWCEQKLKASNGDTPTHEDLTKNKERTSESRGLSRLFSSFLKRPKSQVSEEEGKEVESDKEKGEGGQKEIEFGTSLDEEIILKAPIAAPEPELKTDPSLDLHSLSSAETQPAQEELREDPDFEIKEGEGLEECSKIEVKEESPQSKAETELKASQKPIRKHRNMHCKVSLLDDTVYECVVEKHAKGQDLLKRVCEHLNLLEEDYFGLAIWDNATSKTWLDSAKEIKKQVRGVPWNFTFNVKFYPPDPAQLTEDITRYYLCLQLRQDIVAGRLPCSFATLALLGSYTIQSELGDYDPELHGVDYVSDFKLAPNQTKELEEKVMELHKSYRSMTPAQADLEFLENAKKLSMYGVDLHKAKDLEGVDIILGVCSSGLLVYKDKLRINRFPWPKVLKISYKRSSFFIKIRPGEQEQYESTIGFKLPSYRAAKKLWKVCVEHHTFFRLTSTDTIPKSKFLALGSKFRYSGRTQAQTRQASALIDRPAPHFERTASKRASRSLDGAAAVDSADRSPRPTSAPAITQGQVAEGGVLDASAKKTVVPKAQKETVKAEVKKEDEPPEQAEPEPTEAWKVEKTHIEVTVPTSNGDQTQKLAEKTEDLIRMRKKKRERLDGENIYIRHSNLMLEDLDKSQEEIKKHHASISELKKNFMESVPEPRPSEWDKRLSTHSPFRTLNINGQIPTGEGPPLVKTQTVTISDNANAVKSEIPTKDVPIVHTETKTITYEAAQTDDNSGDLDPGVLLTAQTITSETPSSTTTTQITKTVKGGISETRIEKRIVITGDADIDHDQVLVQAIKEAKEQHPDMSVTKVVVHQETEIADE

No constants are given. Whether binding was seen depends on the method and setting. Binding seen in cells or lysates may run through a third protein. Some entries that bind do so weakly or less than the wild type.

Assay [1] addresses GST-Merlin (full length) (UniProt P35240). The assay can be described thus: pull-down.
Assay [2] has as its target Flag-Merlin (UniProt P35240). As to the kind of experiment: co-IP.
Assay [3] has as its target Flag-Moesin (UniProt P26038). The assay can be described thus: co-IP.
Assay [4] has as its target Flag-Radixin (UniProt P35241). The assay can be described thus: co-IP.
The target of assay [5] is Flag-Ezrin (UniProt P15311). As to the kind of experiment: co-IP.
In assay [6] the target is Flag-Merlin isoform 1 (UniProt P35240). As to the kind of experiment: co-IP.
The target of assay [7] is Flag-erythrocyte membrane protein band 4.1 (EPB41) (UniProt P11171). The assay can be described thus: co-IP.

B1: TAT-SF1 (endogenous) (protein, UniProt O43719 1-755)
chain: MSGTNLDGNDEFDEQLRMQELYGDGKDGDTQTDAGGEPDSLGQQPTDTPYEWDLDKKAWFPKITEDFIATYQANYGFSNDGASSSTANVEDVHARTAEEPPQEKAPEPTDARKKGEKRKAESGWFHVEEDRNTNVYVSGLPPDITVDEFIQLMSKFGIIMRDPQTEEFKVKLYKDNQGNLKGDGLCCYLKRESVELALKLLDEDEIRGYKLHVEVAKFQLKGEYDASKKKKKCKDYKKKLSMQQKQLDWRPERRAGPSRMRHERVVIIKNMFHPMDFEDDPLVLNEIREDLRVECSKFGQIRKLLLFDRHPDGVASVSFRDPEEADYCIQTLDGRWFGGRQITAQAWDGTTDYQVEETSREREERLRGWEAFLNAPEANRGLRRSDSVSASERAGPSRARHFSEHPSTSKMNAQETATGMAFEEPIDEKKFEKTEDGGEFEEGASENNAKESSPEKEAEEGCPEKESEEGCPKRGFEGSCSQKESEEGNPVRGSEEDSPKKESKKKTLKNDCEENGLAKESEDDLNKESEEEVGPTKESEEDDSEKESDEDCSEKQSEDGSEREFEENGLEKDLDEEGSEKELHENVLDKELEENDSENSEFEDDGSEKVLDEEGSEREFDEDSDEKEEEEDTYEKVFDDESDEKEDEEYADEKGLEAADKKAEEGDADEKLFEESDDKEDEDADGKEVEDADEKLFEDDDSNEKLFDEEEDSSEKLFDDSDERGTLGGFGSVEEGPLSTGSSFILSSDDDDDDI
Turning to B1, the binding entry in assay [1] is reported as “binds”; in assay [2], “binds”; in assay [3] it was “no binding”; in assay [4], “no binding”; in assay [5] it was “no binding”; in assay [6], “binds”. For the same molecule, in assay [7], the binding entry is listed as “no binding”.

B2: AMOTL1 (endogenous) (protein, UniProt Q8IY63 1-956)
chain: MWRAKLRRGTCEPAVKGSPSACYSPSSPVQVLEDSTYFSPDFQLYSGRHETSALTVEATSSIREKVVEDPLCNFHSPNFLRISEVEMRGSEDAAAGTVLQRLIQEQLRYGTPTENMNLLAIQHQATGSAGPAHPTNNFSSTENLTQEDPQMVYQSARQEPQGQEHQVDNTVMEKQVRSTQPQQNNEELPTYEEAKAQSQFFRGQQQQQQQQGAVGHGYYMAGGTSQKSRTEGRPTVNRANSGQAHKDEALKELKQGHVRSLSERIMQLSLERNGAKQHLPGSGNGKGFKVGGGPSPAQPAGKVLDPRGPPPEYPFKTKQMMSPVSKTQEHGLFYGDQHPGMLHEMVKPYPAPQPVRTDVAVLRYQPPPEYGVTSRPCQLPFPSTMQQHSPMSSQTSSASGPLHSVSLPLPLPMALGAPQPPPAASPSQQLGPDAFAIVERAQQMVEILTEENRVLHQELQGYYDNADKLHKFEKELQRISEAYESLVKSTTKRESLDKAMRNKLEGEIRRLHDFNRDLRDRLETANRQLSSREYEGHEDKAAEGHYASQNKEFLKEKEKLEMELAAVRTASEDHRRHIEILDQALSNAQARVIKLEEELREKQAYVEKVEKLQQALTQLQSACEKREQMERRLRTWLERELDALRTQQKHGNGQPANMPEYNAPALLELVREKEERILALEADMTKWEQKYLEESTIRHFAMNAAATAAAERDTTIINHSRNGSYGESSLEAHIWQEEEEVVQANRRCQDMEYTIKNLHAKIIEKDAMIKVLQQRSRKDAGKTDSSSLRPARSVPSIAAATGTHSRQTSLTSSQLAEEKKEEKTWKGSIGLLLGKEHHEHASAPLLPPPPTSALSSIASTTAASSAHAKTGSKDSSTQTDKSAELFWPSMASLPSRGRLSTTPAHSPVLKHPAAKGTAEKLENSPGHGKSPDHRGRVSSLLHKPEFPDGEMMEVLI
As for B2, in assay [2], the binding entry is “binds”.
